Data as given in PubChem BioAssay AID602196 (INSERM, 2012)

- Purpose: 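Genes whose knock-down alters cisplatin killing of lung cancer cells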
- System: human A549 lung cancer cells
- Reagent: siRNA pair against human genes
- Time to read-out: 48 h transfection before cisplatin; time from cisplatin to read-out not stated
- Challenge: cisplatin at a dose killing half of control-siRNA cells; exact dose and duration not given
- Detection: 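Cisplatin cell death as a shift from the 50% death seen with control siRNA; siRNAs toxic or growth-blocking alone scored 0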
- Direction: two-siRNA summed score (-2 to +2): higher = both siRNAs protect from cisplatin killing; -2 means both sensitise; mean protection from cisplatin (shift in death) and protection from cisplatin (shift in death), siRNA C and protection from cisplatin (shift in death), siRNA D: higher = protection from cisplatin killing
- Hit rule: 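Each siRNA scores 0 if harmful alone by LDH or WST-1, otherwise +1 if it reduces and -1 if it increases cisplatin killing; a gene is active when both siRNAs agree (sum +2 or -2)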
- Calls: active = both siRNAs shift cisplatin killing the same way; inactive = no consistent shift, or siRNA harmful alone
The whole screen tested about 23,000 reagents; shown is an unselected part. 455 of all reagents (2%) were called active. 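Active includes both protection and sensitisation; some change values fall well beyond the stated -50 to +50 range.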 The record does not give: the amount of reagent.

| gene knocked down | PubChem SID | two-siRNA summed score (-2 to +2) | mean protection from cisplatin (shift in death) (%) | protection from cisplatin (shift in death), siRNA C (%) | protection from cisplatin (shift in death), siRNA D (%) | Outcome |
| --- | --- | --- | --- | --- | --- | --- |
| LOC440095 | SID131521706 | 1 | 14.5 | 12.9 | 16.1 | inactive |
| MGC35045 | SID131521209 | 1 | 12.6 | 16.2 | 9.1 | inactive |
| MAF1 | SID131507430 | 0 | -0.2 | 4 | -4.3 | inactive |
| TUT4 | SID131506602 | 0 | -1.3 | -10.5 | 8 | inactive |
| ECPAS | SID131515757 | 0 | 9.6 | 20 | -0.7 | inactive |
| LOC442522 | SID131521612 | 1 | 14.2 | 21.3 | 7 | inactive |
| NTM | SID131508058 | 0 | 0.6 | 4 | -2.9 | inactive |
| LOC440965 | SID131518007 | 0 | 15.9 | 10.4 | 21.3 | inactive |
| CC2D1A | SID131512616 | 0 | 5.7 | 7.9 | 3.4 | inactive |
| LOC441567 | SID131511833 | 0 | 4.8 | 4 | 5.6 | inactive |
| DPF1 | SID131500395 | -2 | -14.9 | -13.2 | -16.6 | active |
| ZNF619 | SID131519350 | 1 | 5 | -5.7 | 15.6 | inactive |
| GH1 | SID131502723 | -1 | 3.8 | 31.1 | -23.4 | inactive |
| LOC442595 | SID131515980 | 0 | 10 | 17.6 | 2.4 | inactive |
| TRPM2 | SID131506244 | 0 | -1.8 | 15.1 | -18.7 | inactive |
| LRRC4B | SID131521313 | 1 | 13 | 15.3 | 10.6 | inactive |
| HMGN4 | SID131521357 | 1 | 13.1 | 13.1 | 13.1 | inactive |
| LOC345651 | SID131510879 | 0 | 3.7 | -0.1 | 7.6 | inactive |
| CAMKK1 | SID131516637 | 0 | 11.3 | 8.2 | 14.3 | inactive |
| CCR3 | SID131504387 | 0 | -5.6 | -4.5 | -6.6 | inactive |
| ARL15 | SID131514658 | 0 | 8.1 | 9.6 | 6.6 | inactive |
| ARHGEF38 | SID131513001 | 0 | 6.1 | -14.7 | 26.9 | inactive |
| CLIP1 | SID131520620 | 1 | 10.5 | 15.9 | 5.1 | inactive |

Targets above whose gene name starts with T or t (2):
| gene knocked down | PubChem SID | two-siRNA summed score (-2 to +2) | mean protection from cisplatin (shift in death) (%) | protection from cisplatin (shift in death), siRNA C (%) | protection from cisplatin (shift in death), siRNA D (%) | Outcome |
| --- | --- | --- | --- | --- | --- | --- |
| TUT4 | SID131506602 | 0 | -1.3 | -10.5 | 8 | inactive |
| TRPM2 | SID131506244 | 0 | -1.8 | 15.1 | -18.7 | inactive |

More reagents:
| gene knocked down | PubChem SID | two-siRNA summed score (-2 to +2) | mean protection from cisplatin (shift in death) (%) | protection from cisplatin (shift in death), siRNA C (%) | protection from cisplatin (shift in death), siRNA D (%) | Outcome |
| --- | --- | --- | --- | --- | --- | --- |
| MDGA2 | SID131512926 | 0 | 6 | 15.1 | -3.1 | inactive |
| SMIM11 | SID131510341 | 0 | 3.1 | 2.7 | 3.6 | inactive |
| LOC441621 | SID131510814 | 0 | 3.7 | 1 | 6.3 | inactive |
| KCTD16 | SID131513294 | 0 | 6.4 | 13.8 | -1 | inactive |
| LOC388453 | SID131518887 | 0 | 37.9 | 49.6 | 26.1 | inactive |
| PLVAP | SID131515603 | 0 | 9.4 | 8.7 | 10.1 | inactive |
| PSMA1 | SID131516789 | 0 | 11.6 | 1.1 | 22.2 | inactive |
| WASHC5 | SID131508860 | 0 | 1.6 | -2.7 | 5.9 | inactive |
| LOC441049 | SID131521339 | 1 | 13 | 1 | 25 | inactive |
| NR1I3 | SID131500394 | -2 | -14.9 | -10.2 | -19.6 | active |
| ZNF804A | SID131504958 | 0 | -4.1 | -5.3 | -2.9 | inactive |
| BEND5 | SID131511177 | 0 | 4.1 | 3 | 5.1 | inactive |
| KAT6A | SID131509279 | 0 | 2 | 7.2 | -3.2 | inactive |
| STAG3 | SID131520692 | 1 | 10.8 | 17.1 | 4.6 | inactive |
| GASK1B | SID131504320 | 0 | -5.7 | -8.2 | -3.2 | inactive |
| LOC145414 | SID131507398 | 0 | -0.2 | -5.2 | 4.8 | inactive |
| APMAP | SID131505269 | 0 | -3.4 | 1.3 | -8.2 | inactive |
| BTG2 | SID131522479 | 1 | 19 | 25.5 | 12.5 | inactive |
| HTR2C | SID131508248 | 0 | 0.8 | -21.6 | 23.2 | inactive |
| LOC392395 | SID131520903 | 1 | 11.5 | -0.1 | 23 | inactive |
| DNAJC12 | SID131508631 | 0 | 1.3 | 12.8 | -10.2 | inactive |
| LOC441997 | SID131520814 | 1 | 11.2 | 13.9 | 8.5 | inactive |
| LOC440302 | SID131515864 | 0 | 9.8 | 11.8 | 7.9 | inactive |
| CACNG5 | SID131503548 | 0 | -9.3 | -26.2 | 7.6 | inactive |
| KIF1B | SID131511015 | 0 | 3.9 | -2.3 | 10.1 | inactive |
| HMGA2 | SID131506592 | 0 | -1.3 | -14.8 | 12.2 | inactive |
| LOC391555 | SID131504154 | 0 | -6.3 | -17.9 | 5.2 | inactive |
| ZSWIM5 | SID131519815 | 1 | 7.6 | -6 | 21.1 | inactive |
| MAPK8IP2 | SID131501712 | -1 | -7.9 | 10.9 | -26.6 | inactive |
| CD5L | SID131503053 | 0 | -14.6 | -7.3 | -22 | inactive |
| OR52E5 | SID131523212 | 2 | 26.7 | 27.9 | 25.5 | active |
| EIF2A | SID131509985 | 0 | 2.7 | 5.5 | 0 | inactive |
| TBC1D31 | SID131503944 | 0 | -7.1 | -0.7 | -13.5 | inactive |
| HSF2BP | SID131508607 | 0 | 1.3 | 4.5 | -2 | inactive |
